Screening data, single-dose tests

Amino acid sequences for entries named in this document (tags omitted). Residues count along the entry.
UniProt A4I591, 1-473: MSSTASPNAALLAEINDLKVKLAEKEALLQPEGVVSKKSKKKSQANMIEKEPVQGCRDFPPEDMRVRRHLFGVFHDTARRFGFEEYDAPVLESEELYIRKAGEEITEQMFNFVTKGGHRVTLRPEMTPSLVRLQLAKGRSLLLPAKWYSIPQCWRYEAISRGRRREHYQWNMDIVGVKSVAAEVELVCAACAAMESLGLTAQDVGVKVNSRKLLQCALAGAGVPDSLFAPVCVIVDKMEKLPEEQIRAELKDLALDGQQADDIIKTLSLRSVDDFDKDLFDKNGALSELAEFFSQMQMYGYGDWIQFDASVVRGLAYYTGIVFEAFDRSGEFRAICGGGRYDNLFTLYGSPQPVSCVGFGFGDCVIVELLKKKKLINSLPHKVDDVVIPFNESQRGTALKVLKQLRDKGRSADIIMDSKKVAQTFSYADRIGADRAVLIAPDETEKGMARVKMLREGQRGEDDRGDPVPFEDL
UniProt Q8IDJ8, 1-583: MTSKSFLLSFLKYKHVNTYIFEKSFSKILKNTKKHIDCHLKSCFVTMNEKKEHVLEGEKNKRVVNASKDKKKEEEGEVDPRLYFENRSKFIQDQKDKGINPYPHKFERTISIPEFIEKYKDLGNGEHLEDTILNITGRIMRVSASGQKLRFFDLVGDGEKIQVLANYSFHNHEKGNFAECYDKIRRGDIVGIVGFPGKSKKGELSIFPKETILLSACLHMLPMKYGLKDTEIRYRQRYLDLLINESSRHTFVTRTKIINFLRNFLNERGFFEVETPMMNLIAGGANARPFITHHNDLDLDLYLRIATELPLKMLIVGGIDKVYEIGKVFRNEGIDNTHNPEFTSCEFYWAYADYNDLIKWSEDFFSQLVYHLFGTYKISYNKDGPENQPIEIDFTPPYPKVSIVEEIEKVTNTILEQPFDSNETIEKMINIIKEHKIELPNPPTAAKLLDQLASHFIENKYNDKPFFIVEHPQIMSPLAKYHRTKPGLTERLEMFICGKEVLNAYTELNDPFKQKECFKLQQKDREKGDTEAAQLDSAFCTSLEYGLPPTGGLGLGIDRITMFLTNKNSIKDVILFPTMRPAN
UniProt Q4DA54, 1-478: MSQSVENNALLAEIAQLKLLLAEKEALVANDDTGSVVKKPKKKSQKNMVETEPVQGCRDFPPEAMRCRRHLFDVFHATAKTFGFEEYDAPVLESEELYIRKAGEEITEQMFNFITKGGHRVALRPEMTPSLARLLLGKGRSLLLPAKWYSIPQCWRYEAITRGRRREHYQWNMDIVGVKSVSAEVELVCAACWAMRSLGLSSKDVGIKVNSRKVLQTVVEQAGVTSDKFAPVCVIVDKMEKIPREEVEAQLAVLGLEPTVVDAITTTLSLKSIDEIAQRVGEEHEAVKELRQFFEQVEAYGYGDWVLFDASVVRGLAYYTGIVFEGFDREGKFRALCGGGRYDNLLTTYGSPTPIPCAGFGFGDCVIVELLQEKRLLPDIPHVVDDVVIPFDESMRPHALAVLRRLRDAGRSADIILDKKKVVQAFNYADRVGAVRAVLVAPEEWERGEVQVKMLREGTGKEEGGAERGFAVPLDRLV

Source: ChEMBL document CHEMBL3988442, “University of Dundee, Small-Polar-MMV Screening Library” (2021).

Values are the deposited “Percent Effect”, in %. The controls that fix the scale are not given in the record; negative values are as filed. The compounds are a random part of those screened.

A: 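Histidine-tRNA ligase, Leishmania infantum (UniProt A4I591). Enzyme assay of histidyl-tRNA synthetase; the read-out is not stated. Compounds at 30 µM. Direction is inferred from retests: higher values go with stronger inhibition. The assay is labelled LdHisRS but filed under L. infantum. Of about 69,000 compounds tested this way, about 410 (0.6%) reached 50% or more in at least one test.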
B: 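Enzyme assay of the cytosolic lysyl-tRNA synthetase in 384-well plates, read by luminescence. Target: Lysine-tRNA ligase, Plasmodium falciparum 3D7 (UniProt Q8IDJ8). Tested at 30 µM. Higher reads as stronger inhibition, judged from the few compounds that gave an IC50. Size under these conditions: about 69,000 compounds, about 49 of them at 50% or above in at least one test.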
C: 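Histidine-tRNA ligase, Trypanosoma cruzi CL Brener (UniProt Q4DA54). Enzyme assay of histidyl-tRNA synthetase; the read-out is not stated. Compounds at 30 µM. The record gives no direction; compounds that gave an IC50 in retests scored well above the rest, so higher reads as stronger inhibition. About 69,000 compounds were tested under these conditions; 0.045% (about 31) showed 50% or more at least once.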

structure	A	B	C
CS(=O)(=O)N1CCC2(CC1)CC(CC(=O)NC1CC1)c1ccccc12 (stereo not shown)	19.61	7.457	-1.639
CC(=O)N1CCCC(c2ccc3sc(N)nc3n2)C1 (stereo not shown)	16.49	3.588	8.889
CCCSc1ncc(C2CC(=O)NCc3nc4ccccn4c32)cn1 (stereo not shown)	16.67	-0.08162	1.02
O=C(NCc1ccc(F)cc1)NCC1(N2CCOCC2)CCSC1 (stereo not shown)	-6.849	1.625	5.911
O=C(N[C@@H]1CN(Cc2ccco2)[C@@H]2CCCO[C@@H]21)c1cscn1	2.727	2.619	0
CC(=O)c1cn(CCC(=O)N[C@@H](CC(C)C)C(=O)O)c2ccccc12	11.96	6.32	-3.96
c1cncc(CN2CCN3C[C@H](Oc4cncnc4)C[C@H]3C2)c1	11.71	3.115	6.63
CN(C)CCNC(=O)c1sc2ccccc2c1C1CCC(CN)CC1 (stereo not shown)	7.042	1.598	5.385
CCCc1nnc2sc(CC3CN(Cc4ccccc4)CCO3)nn12 (stereo not shown)	-7.792	-0.7339	0
Cc1nc2cc(O)nn2c(C)c1CCC(=O)NCCc1ccccc1	24.35	2.405	4.023
CNC(=O)c1cn[nH]c1C1CCCN1c1nc(C)cc(C)n1 (stereo not shown)	15.6	0.329	4.651
COc1ccc(NC(=O)N(CCO)Cc2ccsc2)cc1	15.93	6.781	4.386
CCN1CCN(C(=O)c2ccc3c(c2)NC(=O)CN3)[C@H]2CS(=O)(=O)C[C@H]21	5.128	5.044	5.747
O=C(CCC1CCN(C2CCSCC2)CC1)NCC1CCCO1 (stereo not shown)	8.163	-0.3199	5.128
Cc1cnn(CC2CCCN2c2ccc(C#N)cn2)c1 (stereo not shown)	12.5	-6.537	-3.191
Cc1cc(C(=O)N2C[C@@H](CN(C)CCN(C)C)[C@@H](CO)C2)nc(C)n1	9.804	-0.8084	0
CC(C)Nc1ccnc(N2Cc3cnc(C(C)(C)C)nc3C2)n1	-4.301	-0.3935	2.469
Cc1nc(C)n(CC2CN(Cc3ccc4c(c3)OCCO4)CCO2)n1 (stereo not shown)	11.4	2.289	5.202
COc1ccc(CC(C)(O)CNC(=O)Cc2cccs2)cc1 (stereo not shown)	-5.983	-1.237	1.111
CN1CCCN(C(=O)c2cnsn2)c2cc(Cl)ccc21	17.39	5.268	8
CC(=O)c1cn(CC(=O)N2CCCC(O)(CO)C2)c2ccccc12 (stereo not shown)	20	1.773	10.39
CN(C)C(=O)[C@H]1C[C@@H]2CN(S(=O)(=O)c3ccccc3)C[C@H]1O2	5.882	1.788	5.911
COCCn1ccc2cc(NC(=O)COC)ccc21	20.75	5.873	2.5
COc1ccc2c(c1)[nH]c1c(N(C)CC3OCCO3)ncnc12	7.865	1.539	3.627
CCCNC(=O)Cc1c(C)nc2c(c1C)c(=O)[nH]n2C	24.73	7.598	8.929
CS(=O)(=O)NCC1CCCN(C(=O)COCc2ccccc2)C1 (stereo not shown)	21.28	0.7736	0
CC(C)(CNC(=O)Nc1cccc(-c2nccs2)c1)C(N)=O	5.479	1.255	7.027
Cc1nc(COC[C@@H]2CC[C@H]3[C@H](CCN3c3ncccn3)O2)cs1	9.489	1.728	10.38
CSc1ccc(CN(CCO)C(=O)CCc2ccc(O)cc2)cc1	6.024	0.6472	3.659
CCOC(=O)N1CCC(NC(=O)Nc2cccnc2OCC)CC1	15.38	1.112	6.553
CCN1CCN2CCCN(S(=O)(=O)c3ccc(C)cc3C)C2C1=O (stereo not shown)	19.84	4.497	8.235
Cc1oc(C(=O)O)cc1S(=O)(=O)Nc1ccc(Cl)cc1F	0	2.27	-0.5747
CN1CCc2onc(CNc3ncccn3)c2C1	-1.887	0.9255	1.622
CCN1C(=O)COC[C@@H]1[C@H](O)c1ccc(NC(=O)COC)cc1	27.03	-3.616	-5.473
O=C(c1ccccc1)C1CCN(c2cncc(-n3cccn3)n2)CC1	6.25	4.361	8.621
Cc1cc(C)c2nc(C)cc(C(=O)NCc3csc(N(C)C)n3)c2c1	18.28	3.937	1.571
OC1CCN(C2CCN(Cc3cccc(Cn4cccn4)c3)CC2)CC1	7.2	0.2819	1.508
CCNc1nc(-c2cccnc2)c(-c2ccnc(N3CCCC3)n2)s1	22.86	3.786	3.39
Cc1nc(C2CCCN2CCCS(=O)(=O)c2ccccc2)no1 (stereo not shown)	12.04	0.3681	9.091
Cc1ccc(Nc2nccc(C3CCN(CC(N)=O)C3)n2)nc1 (stereo not shown)	28.42	-0.4378	2.985
COc1ccccc1CNC(C)c1ccc2[nH]c(=O)[nH]c2c1 (stereo not shown)	7.143	-0.1294	1.744
COc1cccc(CN2CCN(C(=O)Nc3nc(C)ns3)CC2=O)c1	2.778	5.049	-1.02
Cc1csc(CN(C)CCOc2ccccc2)n1	8.333	2.423	5.063
COc1ncccc1CN1Cc2nnn(C)c2C(COCC2CC2)C1 (stereo not shown)	12.62	1.617	2.174
Cc1ccc(NCC2(O)CCNCC2)cc1C	8.333	1.255	8.333
CCCNC(=O)CNc1cc(C(=O)N2CCSCC2)ccc1C	13.33	5.568	1.653
Cc1nn(C)c(C)c1C(=O)NN1CCOCC1	16.05	2.112	4.018
COc1cccc(-c2nc(C)c(C(=O)NCCC(=O)O)s2)c1	5.263	1.261	2.924
c1cncc(-c2noc(CNC3CCCN(c4cccnn4)C3)n2)c1 (stereo not shown)	26.88	-0.9351	11.31
CC(=O)c1cccc(OCC(=O)N(CC(C)C)C2CCN(C)CC2)c1	20	-6.822	-1.02
O=C(c1cnccn1)N1CCCC2(CCN(c3ccccn3)C2)C1 (stereo not shown)	9.735	11.76	4
O=C(c1c2c(NCC3CC3)ncnc2n2ccccc12)N1CCCC1	28.95	3.993	8.046
CC(=O)N1CC(c2ncn(C(C)C)n2)c2cc(C(=O)NC(C)C)ccc21 (stereo not shown)	6.195	0.9889	0
O=C(c1coc(CN2CCN(c3ccccc3F)CC2)n1)N1CCCC1	4.839	-1.225	3.448
CC(CNC(=O)c1cc(Cn2cnc3ccccc32)[nH]n1)N1CCCC1 (stereo not shown)	29.41	0.2541	12.35
CCc1[nH]c2c(CNc3cncc(C(=O)OC)n3)cc(C)cc2c1C	13.56	1.674	11.22
CSc1ccc(CN(CCO)C(=O)CCOc2ccccc2)cc1	3.614	-0.7884	0
CN(C)C(=O)CN1CCCC2(CCN(c3ccsc3)C2=O)C1 (stereo not shown)	-38.69	-3.229	4.918
CN(Cc1ccccc1)CC(C)(C)NC(=O)c1ccon1	6.383	0.6804	1.734
Cc1ccc(C(=O)NS(=O)(=O)c2cccc3cnccc23)c(=O)[nH]1	15.38	8.719	2.682
Cc1noc(CN2CCN(C(=O)N(C)C)CC2)n1	8.475	2.013	2.857
CC1c2ncc(CNC(=O)C3CC3)n2CCN1Cc1cnn(C)c1 (stereo not shown)	15.09	2.278	1.622

The first 6 entries again:

* CS(=O)(=O)N1CCC2(CC1)CC(CC(=O)NC1CC1)c1ccccc12 (stereo not shown) : A: 19.61%; B: 7.457%; C: -1.639%
* CC(=O)N1CCCC(c2ccc3sc(N)nc3n2)C1 (stereo not shown) : A: 16.49%; B: 3.588%; C: 8.889%
* CCCSc1ncc(C2CC(=O)NCc3nc4ccccn4c32)cn1 (stereo not shown) : A: 16.67%; B: -0.08162%; C: 1.02%
* O=C(NCc1ccc(F)cc1)NCC1(N2CCOCC2)CCSC1 (stereo not shown) : A: -6.849%; B: 1.625%; C: 5.911%
* O=C(N[C@@H]1CN(Cc2ccco2)[C@@H]2CCCO[C@@H]21)c1cscn1 : A: 2.727%; B: 2.619%; C: 0%
* CC(=O)c1cn(CCC(=O)N[C@@H](CC(C)C)C(=O)O)c2ccccc12 : A: 11.96%; B: 6.32%; C: -3.96%